This note sets out measurements from PMC12858398.

Amino acid sequences for entries named in this document (tags omitted).
UniProt Q9UKT9: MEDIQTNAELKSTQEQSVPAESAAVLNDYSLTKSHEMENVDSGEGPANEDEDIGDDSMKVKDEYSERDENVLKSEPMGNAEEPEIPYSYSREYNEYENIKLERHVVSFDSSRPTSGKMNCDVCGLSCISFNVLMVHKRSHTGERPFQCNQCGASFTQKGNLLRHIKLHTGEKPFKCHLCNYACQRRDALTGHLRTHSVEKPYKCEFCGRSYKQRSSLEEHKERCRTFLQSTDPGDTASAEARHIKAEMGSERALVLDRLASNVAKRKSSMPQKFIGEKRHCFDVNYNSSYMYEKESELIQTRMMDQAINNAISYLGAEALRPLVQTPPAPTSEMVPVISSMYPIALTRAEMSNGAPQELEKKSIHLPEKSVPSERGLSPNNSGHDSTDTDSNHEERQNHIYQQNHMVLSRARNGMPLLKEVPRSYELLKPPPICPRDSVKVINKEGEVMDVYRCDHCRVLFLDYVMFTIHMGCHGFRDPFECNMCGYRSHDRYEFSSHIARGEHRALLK

These are yes or no findings as the source states them, for the method shown. Binding seen in cells or lysates may run through a third protein. Some binding calls cover weakened binding; strength is not graded here.

The experiment deals with β-catenin (human, endogenous, stabilised with LY2090314) (human (endogenous in PDX2, JURL-MK1 and SW620 cells)) (UniProt P35222). The experiment is described as follows: co-IP; β-catenin antibodies or control Ig; western blot of whole-cell lysates (input), elute and flowthrough of B-ALL (PDX2), myeloid leukemia (JURL-MK1) and colon cancer (SW620) cells 16 h after LY2090314 (20 nM). Background: In western blotting, separated proteins are transferred to a membrane and probed.

For the substance “IKZF1, human (from UniProt Q13422 1-519)”, the binding result is given as “binds”.

Regarding “IKZF3, human (from UniProt Q9UKT9 1-509)”, the binding result is “binds”.
